Reference: publication PMC10223552 (Pharmaceuticals, 2023)

These compounds were tested on MDA-MB-231 breast cancer cells. Conditions: selectivity index.
Type: cell-based
Protocol: (§1) The cell lines were obtained from American Type Culture Collection (ATCC, Manassas, VA, USA) and were cultured at 37 °C in the presence of 5% CO2 in the atmosphere. […] The cell’s morphology was examined under a Nikon Eclipse Ti inverted phase contrast microscope (Nikon, Tokyo, Japan). The authenticity of tested cell lines was verified by short tandem repeat (STR) genotyping in the Department of Forensic Medicine (Medical University of Lublin, Lublin, Poland).
(§2) Cell viability based on metabolic activity was evaluated with the MTT colorimetric test based on the ability of viable cells to cause the transformation of tetrazolium salts MTT (3-[4,5-dimethylthiazol-2-yl]-2,5)diphenyltetrazolium bromide) into purple formazan, by cellular dehydrogenases. The cells were seeded into 96-well plates at a concentration of 2 × 10^5 cells/mL. […] Doxorubicin was used for comparison as the standard chemotherapeutic agent used in breast cancer treatment. After 48 h of incubation cell cultures were supplemented with 20 µL of 5 mg/mL MTT (Thermofisher, Waltham, MA, USA) stock in PBS (Corning, NY, USA), and the incubation was continued for 4 h at 37 °C. Next, the medium with MTT was removed, and obtained crystals were dissolved in 200 µL of DMSO (dimethyl sulfoxide, Avantor, Gliwice, Poland). The solution absorbency was measured at 570 nm, using a PowerWave™ xs microplate spectrophotometer (BioTek Instruments, Winooski, VT, USA). The experiment was performed three times with three replicates for each concentration of tested compounds.

Going from `N=C(N)N(CCCCN1CCN(CCCCCCCOc2ccccc2)CC1)Cc1ccccc1` [ADS1017] to `Cl.Cl.N=C(NCCCCc1ccc(Cl)cc1)NCCCCN1CCCCC1` [ADS10310], the “SI BJ(IC50)/MDA-MB-231(IC50)” value rises from 1.96 to 2.01.

`COc1cccc2c1C(=O)c1c(O)c3c(c(O)c1C2=O)C[C@@](O)(C(=O)CO)C[C@@H]3O[C@H]1C[C@H](N)[C@H](O)[C@H](C)O1` [Doxorubicin, reference compound] was tested, and the “SI BJ(IC50)/MDA-MB-231(IC50)” value was 2.63.

What follows are compounds tested on MCF-7 breast cancer cells. Conditions: selectivity index.
Type: cell-based
Protocol: as §1, §2

Compared with `N=C(N)N(CCCCN1CCN(CCCCCCCOc2ccccc2)CC1)Cc1ccccc1` [ADS1017], `Cl.Cl.N=C(NCCCCc1ccc(Cl)cc1)NCCCCN1CCCCC1` [ADS10310] is higher in “SI BJ(IC50)/MCF-7(IC50)” value: 1.58 for the first, 2.79 for the second.

`COc1cccc2c1C(=O)c1c(O)c3c(c(O)c1C2=O)C[C@@](O)(C(=O)CO)C[C@@H]3O[C@H]1C[C@H](N)[C@H](O)[C@H](C)O1` [Doxorubicin, reference compound] was tested, and the “SI BJ(IC50)/MCF-7(IC50)” value was 2.20.
